Assay results published in PubChem BioAssay AID1347076 (National Center for Advancing Translational Sciences (NCATS), 2019).
Hit rate of the full screen: of about 400,000 compounds, about 13,000 (3.2%) were called active. Inconclusive means that the source gave no clear call. Such entries were picked first, then a sample of the others. The call rests on the fitted dose curve; in most records, active means well fitted cell-killing curve with a large enough effect; inconclusive means small, poorly fitted or top-dose-only effect, or effect the other way; inactive means flat fitted curve, though single readings scatter. Potencies of inconclusive entries are doubtful fits and often do not repeat.

assay: qHTS assay for MDR1-selective chemotherapeutics: Primary screen using the drug-selected MDR subline cells KB-V1; settings: KB-V1 MDR cells viability, CellTiter-Glo, 72 h; activity change, negative = cytotoxicity: at 46.1 µM (top of the series); further: nearly all actives have a fitted effect of over 60% in size
Summary of the method: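 Following 72 h at 37 degrees C with compound, KB-V1 cell viability was read by CellTiter-Glo luminescence, medium being phenol-red-free DMEM plus 10% FBS; concentration-response parameters came from normalized, curve-fitted qHTS data.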
On the % scale 0 is the no-effect control and ±100 the full control effect; potency means the concentration at half of the fitted maximal effect.

| SMILES | Potency | activity change, negative = cytotoxicity |
| --- | --- | --- |
| CCc1cc2c(=O)c(-c3ccc4c(c3)OCCO4)coc2cc1OS(C)(=O)=O | inconclusive: 18.4 µM [cytotoxic, partial curve, poor fit] | – |
| CC(C)N(C(=O)CSc1nn2c(=O)c(C(C)(C)C)nnc2s1)c1ccccc1 | inconclusive: 18.4 µM [cytotoxic, single point] | – |
| S=C(NCCN1CCOCC1)Nc1cccc2ccccc12 | inconclusive: 18.4 µM [cytotoxic, partial curve, poor fit] | – |
| O=C(Cc1ccccc1)Nc1ccccc1CO | inconclusive: 8.2 µM [rising, partial curve, poor fit] | – |
| COc1ccc(CCNC(=O)CSc2ncnc3c2oc2ccccc23)cc1OC | inconclusive: 20.6 µM [cytotoxic, single point] | – |
| Cc1cc(C)cc(Nc2ncnc3sc4c(c23)CCCC4)c1 | inconclusive: 5.8 µM [rising, partial curve, poor fit] | – |
| COc1ccc(N2CCN(CCCNC(=O)C3CCC(CNc4nc(=S)[nH]c5ccccc45)CC3)CC2)cc1 (stereo not given) | inconclusive: 18.4 µM [cytotoxic, single point] | – |
| Cc1cc(C)c(NC(=O)Nc2sc3nc4n(c(=O)c3c2C)CCC(C)CC4)c(C)c1 (stereo not given) | inconclusive: 13 µM [rising, partial curve] | – |
| C=C(C)CN=C1SC(C(=O)Nc2sc3c(c2C(=O)OC)CCC3)C(N)=C1C(N)=O (stereo not given) | active: 9.2 µM | – |
| O=C1CC(N2CCN(S(=O)(=O)c3ccccc3F)CC2)C(=O)N1c1ccc(F)cc1F (stereo not given) | – | inconclusive: 17.6% |
| Cc1ccc(NC(NC(=O)c2cccnc2)C(Cl)(Cl)Cl)cc1 (stereo not given) | – | inactive: -19.2% |
| CC(C)N(C(=O)Cn1cc(S(=O)(=O)CC(=O)Nc2ccccc2)c2ccccc21)C(C)C | inconclusive: 20.6 µM [cytotoxic, partial curve, poor fit] | – |
| COc1ccc(-n2sc3c(c2=S)-c2cc(OC)ccc2NC3(C)C)cc1 | – | inactive: -5.7% |
| COc1ccc2[nH]c(-c3ccccc3)cc2c1 | inconclusive: 23.1 µM [rising, single point] | – |
| Cc1ccc(CNc2ccccc2C(=O)O)s1 | inconclusive: 3.66 µM [rising, partial curve, poor fit] | – |
| COC(=O)c1sc2ccccc2c1-n1cccc1C(=O)C(=O)Nc1ccc(OC)cc1 | active: 8.2 µM | – |
| COc1ccc(CNC(=O)c2ccc3c(=O)n(-c4ccccc4)c(=O)[nH]c3c2)cc1 | – | inactive: 4.72% |
| CC(C)C(c1nnnn1Cc1ccccc1)N1CCN(Cc2ccc3c(c2)OCO3)CC1 (stereo not given) | inconclusive: 13 µM [cytotoxic, partial curve] | – |
| CCOC(=O)C1CCCc2c1[nH]c1c(C(N)=O)cccc21 (stereo not given) | inconclusive: 13 µM [rising, partial curve, poor fit] | – |
| Nc1c(C(=O)O)sc2nc(-c3ccccc3)c3c(c12)CCCC3 | – | inactive: 5.54% |
| COc1ccc(N=CC=C2OC(C)(C)C(C)(C)O2)cc1OC | – | inactive: 1.44% |
| COC(=O)[C@@]12C[C@@H](CC(=O)NCCCCc3ccccc3)C(=O)N(Cc3ccco3)C1=CCC(C)(C)C2 | inconclusive: 9.2 µM [cytotoxic, partial curve] | – |
| CCCCSc1ccc2nc(-c3ccc(C#N)cc3)cn2c1 | – | inactive: -3.35% |

Among those listed so far, two contain a COOH group:

| SMILES | Potency | activity change, negative = cytotoxicity |
| --- | --- | --- |
| Cc1ccc(CNc2ccccc2C(=O)O)s1 | inconclusive: 3.66 µM [rising, partial curve, poor fit] | – |
| Nc1c(C(=O)O)sc2nc(-c3ccccc3)c3c(c12)CCCC3 | – | inactive: 5.54% |

Next part:

| SMILES | Potency | activity change, negative = cytotoxicity |
| --- | --- | --- |
| C=CCn1c(=NC(=O)C2COc3ccccc3O2)sc2cccc(OC)c21 (stereo not given) | inconclusive: 16.4 µM [cytotoxic, single point] | – |
| Cc1cccc2nc(-c3ccco3)c(Nc3ccccc3)n12 | inconclusive: 9.2 µM [cytotoxic, partial curve] | – |
| C[C@H](CO)N1C[C@H](C)[C@H](CN(C)Cc2ccncc2)OCc2ccccc2-c2c(n(C)c3ccccc23)C1=O | – | inactive: 26.7% |
| O=C(N/N=C/C(Br)=C\c1ccccc1)c1n[nH]c2c1CCC2 | inconclusive: 0.206 µM [cytotoxic, full curve, poor fit] | – |
| CCOc1ccc(C(=O)NC(C)(C)CC)cc1 | inconclusive: 4.61 µM [rising, full curve, poor fit] | – |
| O=C(Cn1nnc2ccccc2c1=O)Nc1cc(C(F)(F)F)ccc1N1CCOCC1 | inconclusive: 5.8 µM [cytotoxic, partial curve] | – |
| Cc1cc(SCC(=O)c2cccs2)nc2ccccc12 | inconclusive: 29.1 µM [cytotoxic, single point] | – |
| O=C(/C=C/Nc1ccccc1Oc1ccccc1)c1ccco1 | inconclusive: 32.6 µM [cytotoxic, partial curve, poor fit] | – |
| O=C(Nc1ccc2ccccc2c1)c1cn(-c2ccccc2)nc1-c1cccs1 | active: 18.4 µM | – |
| O=C1CCN(S(=O)(=O)c2ccccc2)CCN1CCOCc1ccc(C(F)(F)F)cc1 | – | inconclusive: -16.3% |
| O=C(CSc1nc2c(c(=O)[nH]1)CCC2)Nc1cc(C(F)(F)F)ccc1Cl | – | inactive: 6.51% |
| CSc1ccc(-c2nc3cc(C)ccn3c2Nc2ccc(C)cc2)cc1 | – | inactive: 6.47% |
| Cc1c(Br)c([N+](=O)[O-])nn1CC(=O)N1CCc2ccccc2C1 | active: 16.4 µM | – |
| CCc1nc(SCc2nc3ccccc3[nH]2)c2oc3ccccc3c2n1 | active: 3.26 µM | – |
| O=C(c1ccc(Br)cc1)c1cn[nH]c1-c1ccccc1O | inconclusive: 0.58 µM [cytotoxic, full curve, poor fit] | – |
| O=C(N/N=C/c1ccccc1OC(F)F)c1cc(-c2ccncc2)nc2ccccc12 | – | inactive: -8.01% |
| COc1ccccc1Nc1ncccc1[N+](=O)[O-] | inconclusive: 14.6 µM [rising, single point] | – |
| O=S(=O)(Cc1ccccc1)Nc1cccc(F)c1 | inconclusive: 0.164 µM [rising, full curve] | – |
| O=C(CCNS(=O)(=O)c1ccccc1C(F)(F)F)NCCCSc1ccccc1 | inconclusive: 29.1 µM [cytotoxic, single point] | – |
| CSc1ccccc1NC(=O)CN(C)S(=O)(=O)c1ccc(F)cc1 | inconclusive: 20 µM [cytotoxic, single point] | – |
| CCOC(=O)c1sc(=NC(=O)c2ccc(C)cc2)n(C)c1C | – | inactive: -7.69% |
| CC1(C)O[C@@H]2[C@H](O1)[C@@H](COS(=O)(=O)O)O[C@H]2n1ccc(=O)[nH]c1=O | inconclusive: 29.1 µM [rising, single point] | – |

One compound at a time, from the list above:
Cc1cccc2nc(-c3ccco3)c(Nc3ccccc3)n12 as listed: Potency: inconclusive: 9.2 µM [cytotoxic, partial curve]
C[C@H](CO)N1C[C@H](C)[C@H](CN(C)Cc2ccncc2)OCc2ccccc2-c2c(n(C)c3ccccc23)C1=O as listed: activity change, negative = cytotoxicity: inactive: 26.7%
